Measurements: EP4840855A1, “SULFONAMIDE DERIVATIVE, PREPARATION METHOD THEREFOR AND USE THEREOF” (dated 2026)
pIC50: −log10 of the molar value. The structures given here were assigned with low confidence; some may be wrong.

Chains of the proteins cited; added tags and fusions are not shown.
UniProt P17812, whole entry: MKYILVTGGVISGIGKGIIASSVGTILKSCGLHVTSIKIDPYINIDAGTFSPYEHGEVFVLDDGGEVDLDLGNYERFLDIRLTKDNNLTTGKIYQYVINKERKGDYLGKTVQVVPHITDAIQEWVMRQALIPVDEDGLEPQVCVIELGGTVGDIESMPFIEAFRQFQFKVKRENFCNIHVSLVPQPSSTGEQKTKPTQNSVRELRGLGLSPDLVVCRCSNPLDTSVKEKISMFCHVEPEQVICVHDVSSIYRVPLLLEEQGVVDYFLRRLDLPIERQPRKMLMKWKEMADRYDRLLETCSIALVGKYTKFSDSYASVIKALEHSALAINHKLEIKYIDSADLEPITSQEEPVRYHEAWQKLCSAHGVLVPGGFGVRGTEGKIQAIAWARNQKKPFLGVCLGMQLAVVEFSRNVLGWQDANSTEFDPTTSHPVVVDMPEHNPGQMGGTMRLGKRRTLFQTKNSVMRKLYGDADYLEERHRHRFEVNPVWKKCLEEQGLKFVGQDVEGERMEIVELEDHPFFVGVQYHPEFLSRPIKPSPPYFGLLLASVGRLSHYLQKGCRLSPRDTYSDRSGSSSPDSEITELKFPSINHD

What was measured:
[1] = tested on: Jurkat (Clone E6-1) cells; assay: Inhibition on Jurkat cell proliferation (CellTiter-Glo cell viability); conditions: 72 hours culture
Protocol: The following method was used to determine the effect of the compounds of the present disclosure on Jurkat cell proliferation. Jurkat (Clone E6-1) cells were purchased from the Cell Resource Center of Shanghai Institutes for Biological Sciences, Chinese Academy of Sciences, and were cultured in RPMI 1640 medium containing 10% fetal bovine serum, 100 U penicillin, and 100 µg/mL streptomycin. Cell viability was measured using a CellTiter-Glo® Luminescent Cell Viability Assay kit (Promega, catalog number G7573).
The experiment was performed according to the kit's manual, briefly summarized as follows: test compounds were first dissolved in DMSO to prepare 10 mM stock solutions, which were then diluted with medium to prepare test samples. The final concentration range of the compounds was from 10000 nM to 1.52 nM. Cells in the logarithmic growth phase were seeded into a 96-well cell culture plate at a density of 1000 cells per well, and test compounds were added. The cells were cultured in a 37°C CO2 incubator for 72 hours. After culturing, 50 µL of CellTiter-Glo detection reagent was added to each well, the plate was shaken for 5 minutes, and allowed to stand for 10 minutes. The luminescence of each well was then measured using a microplate reader in Luminescence mode. The percentage inhibition at each concentration point was calculated by comparison with the control group (0.1% DMSO). Nonlinear regression analysis of compound concentration logarithm versus inhibition rate was performed using GraphPad Prism 9 software to obtain the IC50 values of the compounds for inhibiting cell proliferation, as shown in Table 1. Table 1 IC50 Data for Inhibition on Jurkat Cell Proliferation by the Compounds of the Present Disclosure

[2] = target: human cytidine triphosphate synthase 1 (hCTPS1) (Homo sapiens, UniProt P17812); assay: Inhibition on hCTPS1 enzyme activity (ADP-Glo Kinase Assay); conditions: 40 nM hCTPS1, 120 µM ATP, 160 µM UTP, 60 µM GTP, 100 µM L-Glutamine, 120 minutes
Protocol: The following method was used to determine the degree of inhibition on human cytidine triphosphate synthase 1 (hCTPS1) enzyme activity by the compounds of the present disclosure in vitro. ADP-Glo™ Kinase Assay kit (catalog number V9102) from Promega was used in this method. The kit's manual may be referred for a detailed experimental procedure.
The experimental procedure was briefly described as follows: The reaction was performed in a buffer containing 50 mM 4-hydroxyethylpiperazineethanesulfonic acid (HEPES), 10 mM magnesium chloride, 5 mM potassium chloride, 0.01% Pluronic F127, and 4 mM dithiothreitol in a 384-well plate. First, 100 nL of gradient-diluted compound was transferred to the 384-well plate via a nanoliter acoustic liquid transfer system (manufacturer: Labcyte; catalog number: Echo 655), and 2.5 µL of buffer containing hCTPS1 was added, followed by incubation in a 25°C incubator for 10 minutes. Then 2.5 µL of buffer containing ATP and UTP was added, followed by incubation in a 25°C incubator for 10 minutes. […] Then 20 µL of Kinase Detection Reagent was added, and after 1 hour, the chemiluminescence value was recorded on a Microbeta microplate reader (manufacturer: PerkinElmer; catalog number: Envision). The percentage inhibition rates of the compounds at each concentration were calculated by comparing the chemiluminescence intensity ratio with a control group (0.1% DMSO). […]

[3] = Pharmacokinetic testing in mice (plasma concentration by LC-MS/MS); conditions: ICR mice, male, Oral (10 mg/kg), fasted overnight
Protocol: ICR mice were used as test animals. Plasma concentrations of the test compounds at different time points were measured by LC/MS/MS after intragastrical administration of the reference compound STP-B and the compounds of the present disclosure, and the pharmacokinetic characteristics of the compounds of the present disclosure in mice were studied.
ICR mice, male, 30.8 to 38.0 g, purchased from Vital River Laboratory Animal Technology Co., Ltd.
An appropriate amount of the test compound was weighed, and an appropriate amount of DMA (N,N-dimethylacetamide), 30% Solutol HS15 (30% polyethylene glycol-15 hydroxystearate), and saline were added sequentially, mixed by ultrasonication and vortexing to prepare a 1 mg/mL dosing formulation. The ratio of DMA:30% Solutol HS15:saline was 10:10:80 (v/v/v).
ICR mice in each test compound injection group (9 mice per group) were fasted overnight and then administered intragastrically (PO, compound dose was 10 mg/kg, dosing volume was 10 mL/kg), and fed 4 hours after dosing.
About 0.1 mL of blood was collected from the orbit before dosing and at 0.25 h, 0.5 h, 1 h, 2 h, 4 h, 8 h, 10 h, and 24 h after dosing, and whole blood samples were placed in anticoagulant tubes containing EDTA-K2. […]
The content of test compounds in mouse plasma after intragastrical administration was determined by LC-MS/MS.

Row | pIC50 [1] | pIC50 [2] | Half-life T1/2 [3] | Plasma concentration Cmax [3] | SMILES
1 | 8.06 | 7.97 | 2.8 h | 28700 ng/mL | CCOc1cncc(-c2ccc(NC(=O)C3(c4nccc(NS(=O)(=O)C5CC5)n4)CC4CC4C3)c(OC)c2)n1 (stereo not drawn)
2 | 8.35 |  |  |  | CCOc1cncc(-c2ccc(NC(=O)C3(c4cc(NS(=O)(=O)C5CC5)ncn4)CC4CC4C3)c(OC)c2)n1 (stereo not drawn)
3 | 7.89 |  |  |  | O=C(Nc1ccc(-c2cnn3ccc(Cl)cc23)cc1)C1(c2cc(NS(=O)(=O)C3CC3)ccn2)CC2CC2C1 (stereo not drawn)
